This experiment concerns the target T1, His-tagged A. baumannii RecA (Acinetobacter baumannii) (UniProt A3M645).
T1 sequence: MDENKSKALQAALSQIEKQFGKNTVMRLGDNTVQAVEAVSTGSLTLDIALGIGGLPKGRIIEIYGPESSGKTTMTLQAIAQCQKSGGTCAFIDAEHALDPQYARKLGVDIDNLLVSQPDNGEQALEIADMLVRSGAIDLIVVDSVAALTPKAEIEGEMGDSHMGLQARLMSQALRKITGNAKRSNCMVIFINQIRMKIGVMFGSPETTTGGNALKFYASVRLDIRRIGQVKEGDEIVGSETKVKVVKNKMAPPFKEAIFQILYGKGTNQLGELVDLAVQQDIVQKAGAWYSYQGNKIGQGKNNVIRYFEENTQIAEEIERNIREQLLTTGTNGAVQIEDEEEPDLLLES
Kind of experiment: SEC. (SEC sorts molecules by how far they enter the pores of the column.)

Results are given in words; binding and its absence hold for the method and conditions named. Binding calls can cover weak binding; strength is not graded here. Where a sequence is shown, tags or fusion partners need not be part of it.

With “EppR (error-prone polymerase regulator), purified (Acinetobacter baumannii)”, the binding result is on record as “binds”.

Values taken from article doi:10.1101/2025.06.05.658052 (bioRxiv, 2025).
